In publication PMC5450191 one finds binding data, which are given here for three molecules.

Protein sequences, listed by entry. Tags and fused reporters are not part of them. Lines headed by an entry give the natural chain unless they say otherwise; changes in a name come on top. Chains listed by the source or under a name are the forms on record and can include a tag or linker.
GFP–Nup185 (I7MFN0, form named): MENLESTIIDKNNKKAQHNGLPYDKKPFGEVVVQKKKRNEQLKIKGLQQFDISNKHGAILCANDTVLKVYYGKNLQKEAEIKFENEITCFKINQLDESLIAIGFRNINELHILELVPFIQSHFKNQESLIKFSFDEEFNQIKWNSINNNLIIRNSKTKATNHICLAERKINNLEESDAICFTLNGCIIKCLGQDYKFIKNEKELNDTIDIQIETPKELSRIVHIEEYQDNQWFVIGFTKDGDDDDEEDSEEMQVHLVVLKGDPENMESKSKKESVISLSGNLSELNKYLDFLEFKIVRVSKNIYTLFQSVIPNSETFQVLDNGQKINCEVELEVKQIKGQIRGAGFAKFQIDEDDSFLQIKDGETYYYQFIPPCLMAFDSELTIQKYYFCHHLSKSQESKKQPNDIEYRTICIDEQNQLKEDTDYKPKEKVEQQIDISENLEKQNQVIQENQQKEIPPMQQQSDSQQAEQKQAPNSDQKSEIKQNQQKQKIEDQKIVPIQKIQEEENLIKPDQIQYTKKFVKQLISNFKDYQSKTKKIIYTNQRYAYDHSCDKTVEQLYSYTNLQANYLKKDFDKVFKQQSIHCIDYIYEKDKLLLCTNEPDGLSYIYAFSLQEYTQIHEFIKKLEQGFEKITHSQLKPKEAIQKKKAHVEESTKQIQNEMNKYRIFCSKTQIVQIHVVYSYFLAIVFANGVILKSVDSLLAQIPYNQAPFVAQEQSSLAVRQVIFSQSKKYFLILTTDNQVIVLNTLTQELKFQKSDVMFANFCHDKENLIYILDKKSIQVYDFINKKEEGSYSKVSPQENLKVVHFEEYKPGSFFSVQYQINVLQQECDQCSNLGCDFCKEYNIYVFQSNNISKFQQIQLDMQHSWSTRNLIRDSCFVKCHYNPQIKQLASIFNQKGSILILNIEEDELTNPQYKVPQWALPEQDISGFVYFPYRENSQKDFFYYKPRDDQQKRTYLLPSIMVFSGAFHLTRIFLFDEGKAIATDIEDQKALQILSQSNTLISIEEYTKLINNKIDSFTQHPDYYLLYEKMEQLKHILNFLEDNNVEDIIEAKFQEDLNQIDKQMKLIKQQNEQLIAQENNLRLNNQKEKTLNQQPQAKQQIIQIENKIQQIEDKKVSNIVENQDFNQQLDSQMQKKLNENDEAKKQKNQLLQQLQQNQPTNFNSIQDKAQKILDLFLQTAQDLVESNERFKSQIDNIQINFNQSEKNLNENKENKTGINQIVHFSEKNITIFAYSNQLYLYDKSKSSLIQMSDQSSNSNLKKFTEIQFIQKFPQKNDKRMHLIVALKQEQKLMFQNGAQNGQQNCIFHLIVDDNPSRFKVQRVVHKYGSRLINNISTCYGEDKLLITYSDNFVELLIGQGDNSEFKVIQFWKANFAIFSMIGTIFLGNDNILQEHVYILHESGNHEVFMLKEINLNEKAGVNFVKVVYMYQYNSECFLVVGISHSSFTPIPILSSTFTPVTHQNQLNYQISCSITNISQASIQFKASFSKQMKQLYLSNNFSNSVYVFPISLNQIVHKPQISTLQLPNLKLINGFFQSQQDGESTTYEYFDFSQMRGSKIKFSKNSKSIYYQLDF
UniProt Q236D1: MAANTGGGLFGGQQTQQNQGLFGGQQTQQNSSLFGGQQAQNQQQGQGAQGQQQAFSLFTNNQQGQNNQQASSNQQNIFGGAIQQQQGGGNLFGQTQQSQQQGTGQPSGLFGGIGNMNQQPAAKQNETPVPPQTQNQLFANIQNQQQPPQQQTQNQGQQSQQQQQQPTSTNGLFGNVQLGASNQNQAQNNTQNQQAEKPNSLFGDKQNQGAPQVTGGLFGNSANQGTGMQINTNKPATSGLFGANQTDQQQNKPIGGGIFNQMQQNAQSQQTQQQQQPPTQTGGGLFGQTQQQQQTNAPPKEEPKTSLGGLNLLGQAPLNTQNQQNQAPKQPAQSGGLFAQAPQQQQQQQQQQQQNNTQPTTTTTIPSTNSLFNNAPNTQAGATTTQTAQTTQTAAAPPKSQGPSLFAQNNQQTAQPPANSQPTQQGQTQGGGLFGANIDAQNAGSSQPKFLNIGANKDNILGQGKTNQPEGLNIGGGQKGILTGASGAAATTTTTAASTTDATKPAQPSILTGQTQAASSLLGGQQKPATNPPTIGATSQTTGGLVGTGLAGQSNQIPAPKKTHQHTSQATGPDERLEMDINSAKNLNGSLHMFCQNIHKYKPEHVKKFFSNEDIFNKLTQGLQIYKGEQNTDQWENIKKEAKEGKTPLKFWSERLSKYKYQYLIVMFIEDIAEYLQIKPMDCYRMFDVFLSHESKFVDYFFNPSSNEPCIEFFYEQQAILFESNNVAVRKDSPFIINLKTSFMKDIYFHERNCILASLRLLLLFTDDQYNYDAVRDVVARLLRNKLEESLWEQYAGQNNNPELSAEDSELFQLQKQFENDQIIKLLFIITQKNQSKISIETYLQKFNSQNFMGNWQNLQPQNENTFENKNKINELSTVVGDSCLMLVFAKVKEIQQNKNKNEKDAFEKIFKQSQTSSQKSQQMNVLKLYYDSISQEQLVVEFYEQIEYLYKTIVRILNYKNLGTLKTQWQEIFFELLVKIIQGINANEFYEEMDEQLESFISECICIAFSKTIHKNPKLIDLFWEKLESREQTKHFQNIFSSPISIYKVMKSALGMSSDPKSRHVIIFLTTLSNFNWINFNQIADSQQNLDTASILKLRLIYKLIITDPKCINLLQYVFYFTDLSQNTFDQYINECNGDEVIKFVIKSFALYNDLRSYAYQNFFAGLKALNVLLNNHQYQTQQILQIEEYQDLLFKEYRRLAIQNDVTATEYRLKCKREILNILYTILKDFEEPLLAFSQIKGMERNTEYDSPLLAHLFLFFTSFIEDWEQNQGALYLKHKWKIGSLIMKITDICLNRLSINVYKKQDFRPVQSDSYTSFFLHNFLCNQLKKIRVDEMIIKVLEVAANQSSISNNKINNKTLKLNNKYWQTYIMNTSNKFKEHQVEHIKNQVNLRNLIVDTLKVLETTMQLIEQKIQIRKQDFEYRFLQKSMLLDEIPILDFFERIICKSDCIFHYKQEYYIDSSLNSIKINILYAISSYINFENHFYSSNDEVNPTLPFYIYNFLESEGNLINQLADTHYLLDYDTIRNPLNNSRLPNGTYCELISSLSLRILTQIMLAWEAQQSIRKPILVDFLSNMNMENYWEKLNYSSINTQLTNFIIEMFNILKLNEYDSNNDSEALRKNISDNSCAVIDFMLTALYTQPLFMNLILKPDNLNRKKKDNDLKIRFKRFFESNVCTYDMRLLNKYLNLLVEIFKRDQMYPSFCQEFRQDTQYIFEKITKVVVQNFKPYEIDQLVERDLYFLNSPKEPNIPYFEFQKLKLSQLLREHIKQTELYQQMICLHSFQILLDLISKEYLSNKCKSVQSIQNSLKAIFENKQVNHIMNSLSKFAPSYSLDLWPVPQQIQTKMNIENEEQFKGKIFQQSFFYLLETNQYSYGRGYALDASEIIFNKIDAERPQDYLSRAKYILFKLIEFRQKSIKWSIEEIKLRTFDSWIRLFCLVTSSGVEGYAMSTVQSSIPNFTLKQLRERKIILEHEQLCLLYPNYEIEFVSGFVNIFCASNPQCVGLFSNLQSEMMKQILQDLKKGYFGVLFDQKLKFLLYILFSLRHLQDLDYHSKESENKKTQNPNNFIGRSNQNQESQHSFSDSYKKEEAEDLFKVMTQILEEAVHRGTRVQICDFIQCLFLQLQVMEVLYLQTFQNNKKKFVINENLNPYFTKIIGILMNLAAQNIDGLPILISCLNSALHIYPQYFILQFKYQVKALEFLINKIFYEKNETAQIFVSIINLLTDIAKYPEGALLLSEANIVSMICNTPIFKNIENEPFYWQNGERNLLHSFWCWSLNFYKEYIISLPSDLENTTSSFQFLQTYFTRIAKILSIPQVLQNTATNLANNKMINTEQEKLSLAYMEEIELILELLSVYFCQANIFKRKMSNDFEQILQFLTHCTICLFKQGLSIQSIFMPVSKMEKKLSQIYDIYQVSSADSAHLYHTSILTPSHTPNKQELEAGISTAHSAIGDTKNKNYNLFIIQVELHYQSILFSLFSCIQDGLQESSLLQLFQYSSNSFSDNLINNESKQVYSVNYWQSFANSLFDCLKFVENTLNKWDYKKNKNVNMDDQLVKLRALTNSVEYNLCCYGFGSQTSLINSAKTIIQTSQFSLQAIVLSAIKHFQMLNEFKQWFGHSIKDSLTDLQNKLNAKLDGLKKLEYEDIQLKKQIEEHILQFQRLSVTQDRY

Experiment [1] deals with T1, GFP–TtNup93 (T. thermophila) (UniProt Q241A4).
T1 sequence: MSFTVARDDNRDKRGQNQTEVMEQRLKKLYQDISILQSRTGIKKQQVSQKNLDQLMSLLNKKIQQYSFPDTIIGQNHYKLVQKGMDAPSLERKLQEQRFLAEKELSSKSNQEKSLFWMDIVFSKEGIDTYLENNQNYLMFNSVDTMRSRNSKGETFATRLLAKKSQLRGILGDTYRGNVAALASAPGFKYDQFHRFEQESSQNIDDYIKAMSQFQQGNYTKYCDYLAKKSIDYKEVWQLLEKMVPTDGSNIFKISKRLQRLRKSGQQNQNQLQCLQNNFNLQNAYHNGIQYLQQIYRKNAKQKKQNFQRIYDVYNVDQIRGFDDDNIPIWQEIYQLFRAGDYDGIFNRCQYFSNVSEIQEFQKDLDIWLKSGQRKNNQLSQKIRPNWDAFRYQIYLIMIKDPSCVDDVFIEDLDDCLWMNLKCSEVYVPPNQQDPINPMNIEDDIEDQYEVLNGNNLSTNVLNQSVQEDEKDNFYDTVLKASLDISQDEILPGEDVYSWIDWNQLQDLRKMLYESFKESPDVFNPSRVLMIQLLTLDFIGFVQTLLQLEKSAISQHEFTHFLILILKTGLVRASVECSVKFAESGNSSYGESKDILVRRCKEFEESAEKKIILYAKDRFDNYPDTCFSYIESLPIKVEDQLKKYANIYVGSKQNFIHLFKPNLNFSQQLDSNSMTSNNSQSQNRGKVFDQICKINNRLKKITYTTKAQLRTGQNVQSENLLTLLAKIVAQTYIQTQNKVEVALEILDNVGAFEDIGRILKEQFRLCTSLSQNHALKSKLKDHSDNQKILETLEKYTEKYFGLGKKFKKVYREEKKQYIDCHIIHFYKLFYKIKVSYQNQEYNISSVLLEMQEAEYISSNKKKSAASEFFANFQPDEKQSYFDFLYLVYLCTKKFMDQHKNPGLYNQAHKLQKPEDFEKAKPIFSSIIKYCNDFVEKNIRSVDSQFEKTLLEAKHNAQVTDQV
Description: affinity purification with mass spectrometry; anti-GFP rabbit polyclonal antibody and Protein-A–Sepharose on sonicated lysate of GFP–Nup-expressing T. thermophila cells in logarithmic growth; 150 mM NaCl, 1% Triton X-100, 4°C; bound proteins separated by SDS-PAGE, trypsinized, LC-MS/MS.

Experiment [2] deals with GFP–Nup185 (T. thermophila) (UniProt I7MFN0). Described as above.

Results are given in words; binding and its absence hold for the method and conditions named. In cells and extracts the contact can be indirect. Here binding means that the protein was enriched with, or labelled near, the bait; the list need not be complete. For part of these data: Where a sequence is shown, tags or fusion partners need not be part of it.

For Nup308 (from UniProt Q236D1 1-2675), in experiment [1], the binding entry is given as “binds”.

B1: TtTpr (protein, UniProt I7ME84 1-1392)
chain: MDSNQAADQEKQVEAQNEEQKQEQENNEQKENESEQAQTDPQISSGSNQKFDIEITDEDNDPEIENNQTIEQMKFKAYDLKAELKKVGNLAEELKVKFANLETDYDQCKDEKEELEKKYKQSIEKYGEMMKNYEHQIISLENENNIRIQQLQQQIDELKKQNEEKEQSYLNMQQQIKQDKQSFDDIQNKYEEINKHNQEQFKQNSDQWVKLVNLTEEVIFNFYNSNFFTENKDDISSQTHIILQHQQTFQQLIEKYVTFLAEQKEKNEAISDEAFNKIKSENGNGVQKTNQRVQDLQQKFEAYQQQFNKLNSESQENETKLQETKKQLEDLQNELGNKNNQIQELNEQHQKSQTEIQKLNEQITSNQQRIEELQKNENILVEKDKNINEIKEQLSALNQQIEGFKDIQNKLDTKTEEFEKLEKDFNQQKSELEEKIKSKDEEIENLSKKIQDIVEQQQEKQKQLDDLNSNLQNSNKENEQLKQEINDFKNKINNSNQDQEQQSNQLKAELKQTQEQLNDSQQKFEQADKELKDLKQQIEDEKVKLNDKSQESENLKDQLKSANEKLNESQQKLEQIQKNFDDLKQNNDLQKIVDEKQQKCEELERELKELKTQQEQVTAQVQQLNVEKEEIQTKFNQVEQEKEQLKKQEQEKIDLLSQAKQEKENNEQEINNLKQTIANLEKERTDIQIQSQEKDKQLDDAKHTLENLNKEIEQLKNQNQAIGDVNEKNKQLESEITQIKSEIEQKNTEIQSLNSKNETEISEKKQQLEDHTKQVNQLNEQIHQLSTENENLKNEIQTNQNISQTKLTDLNSEIEGFQKEIEETKLQLDDKNTQLKGLQVKLEALEKQLLEKNEEIQKVNQQLKESEQKHEAIQKQNEELQNSLKTLEEKDYNQIQNDLNQQVSDLKQKEQDLNKQLDQKLQEINQIKQQLSNETSDFMKKNVQLQQTIQQLNQTISQYQEQIERIKTDLYQSQQEKSQLQSKLNEANREIQNKEDDLNKKVEIIAELEQNNKDLKINLHNYEVKSYDLDKERFDVLEIQIQHNKEQQVQYKQAEEKIQKLEEEIKKLLADKTDSLEKLQKEIKTEQVIGEEMSKKFRSNLAELQINNEQNSLENSQKTINQLAEVVLRKVKDCFYSSTKIVQISRLFYDGSDGRNASQDNALSLIQELNEAQHASITIHKLLGFEYKKFKNILPIQYLRNDFKVINQTENTTQPLYVNENDQVAQYAIVNYEIQNNKFYVGLIQFDVVSTYFRVGFVPVNPQTKQEQWGEAIYANFCLNHEAANSKNYRNLVRINHFNPIFSIKKGYIYIRFNIQKNIFQFCDTNYQLSELSKCQFKSDLHYKLFIGMKETKGHFQIVDLKEQSRDEDINIMTQIFSNEQPQFEDLIRLFI
With B1, the binding entry in experiment [2] is “binds”.

B2: TtNup58 (protein, UniProt Q23K55 1-390)
chain: MSLFNQNQGVQIGGQKPGGLFQTTTTGQQGGGLFNNQPSLQLGGNQTGGLPVFGGNQQPAAGGTIFNNPIGQQAPAQGQGGIFANQKPIVQNQTQTNNQQQIQHTVQSQTWKEAKQLYQQLQNVKKEQISIERDVNVSDNNNIYAHKPVNILPKEFFDELTNINKDIQKTEQDVAKLVDSQRELFNQIQETRKVIQQSSLSLKQTAQQVKDIQETVNELITEQQDQKQYITNFFYTFTNYLENHQFPRLILPQPFIIKAQEKFQLKLEKLQRQIDEVEQMLQVEIQKRNDEEELAFIFVIVEQLFKYFNNVTALVYEFHKHYESFRMKIVHIQDQREFGFASDLNESTKQSLNEENRYFKLLSNISDNLEKQIRKHEEEQQIKQPNEKRI
Regarding B2, in experiment [1], the binding entry is “binds”.
